Measurements reported in article PMC9409194.

Amino acid sequences for entries named in this document (tags omitted). Residues count along the entry.
UniProt O60479, 129-188: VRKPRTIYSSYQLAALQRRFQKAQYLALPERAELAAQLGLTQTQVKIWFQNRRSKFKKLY

Target: Dlx3-HD (human) (UniProt O60479)
Assay: NMR (1H/15N-HSQC CSP)
Conditions: 500 mM NaCl, 35 C, affinity much weaker than at 100 and 250 mM, 10 mM sodium phosphate pH 6.0, 100, 250 or 500 mM NaCl, 90% H2O/10% D2O, recombinant protein, protein details: Ni-NTA purified (His-tag implied)

CGTAATTGCC (double strand) [dlxDNA]
binding result: binds more weakly

The exact form of at least one protein or probe is not confirmed. The comparison behind a weaker result is the experiment's own reference, which may not be listed here.
